Values quoted from earlier work as cited in patent US20100284984A1, “ADENOSINE AND ITS MIMETICS. MODULATORS, TRANSPORT INHIBITORS, AND RECEPTOR AGONISTS AS A THERAPEUTIC TOOL TO REPLACE OR IMPROVE THE EFFICACY OF DEEP BRAIN STIMULATION” (University of Rochester, priority 2007, published 2010).
Some of these results come from one statement about several compounds together.

Molecular target: adenosine transport
Conditions: adenosine transport inhibitors; cited from earlier work

O=C1CN=C(c2ccccc2Cl)c2cc([N+](=O)[O-])ccc2N1 [clonazepam]
Ki: 10 to 100 µM
